Data taken from PubChem BioAssay AID2685 (National Center for Advancing Translational Sciences (NCATS), 2010).
The list shows a part of the results. These are further read-outs of the screen, such as a control signal, another cell line or another target. No call is given for them. Compounds called inactive in the main read-out are mostly missing here. Words in brackets tell the shape of the fitted curve; partial curves, single points and poor fits give uncertain potencies.

Test: qHTS Assay for Lipid Storage Modulators in Drosophila S3 Cells;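 on cell number change: cells counted by Cell Tracker Red CMTPX staining in the red channel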
Details: BODIPY lipid droplet fluorescence, 18-24 h; for cell number change: measured here: cell count max response, cells fed with added oleic acid
In short: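 Drosophila S3 cells got compounds at several concentrations plus oleic acid (400 uM solution). Laser-scanning cytometry with 488 nm excitation read lipid droplets at 500-530 nm and cells at 575-640 nm. Percent activity was relative to 20 uM Triacsin C.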

[1] = measured here: lipid fluorescence (Fed channel) AC50, cells fed with added oleic acid
[2] = measured here: cell number channel AC50, cells fed with added oleic acid

Row | SMILES | AC50 [1] | cell number change [%] | AC50 [2]
1 | CCOc1ccc(S(=O)(=O)N2CCOCC2)cc1NC(=O)CSCc1c(C)noc1C | 29.1 µM [rising, single point] |  | 
2 | COCCNC(=O)C1CC(c2cccc([N+](=O)[O-])c2)=NO1 (configuration not stated) | 20.6 µM [rising, single point] | 21.4 | 
3 | O=c1[nH]c2cc3c(cc2cc1CN(CCCO)Cc1nnnn1Cc1ccc(F)cc1)OCO3 | 23.1 µM [rising, partial curve, poor fit] | 42.1 | 0.206 µM [rising, full curve, poor fit]
4 | Cc1ccc(N(CC(O)Cn2c3ccccc3c3ccccc32)S(C)(=O)=O)c(C)c1 (configuration not stated) | 23.1 µM [falling, single point] | -65.4 | 18.4 µM [falling, single point]
5 | COCCn1c(C)cc(/C=C2\NC(=S)N(C)C2=O)c1C |  | 5.79 | 
6 | CCOC(=O)CCc1c(C)c2ccc(OCc3cc([N+](=O)[O-])ccc3OC)cc2oc1=O | 18.4 µM [rising, single point] | 34.7 | 4.11 µM [rising, full curve, poor fit]
7 | CC(C)(C)n1nnnc1CN1CCN(C2CCCC2)CC1 | 0.651 µM [falling, full curve] | -11.3 | 6.51 µM [falling, single point]
8 | Cc1ccc(C)c(OC(=O)CN2C(=O)c3ccccc3C2=O)c1 | 29.1 µM [rising, single point] | 4.74 | 
9 | COc1ccc(N=C2SC(CC(=O)Nc3ccccc3)C(=O)N2CCc2ccccn2)cc1 (configuration not stated) | 0.206 µM [falling, full curve, poor fit] | 5.06 | 
10 | Cc1ccc(S(=O)(=O)CC(=O)Nc2nnc(C(C)(C)C)s2)cc1 | 2.31 µM [rising, single point] | 15.5 | 
11 | COc1ccc(S(=O)(=O)N2CCCC(C(=O)NC3CC3)C2)cc1OC (configuration not stated) |  | -20.9 | 0.092 µM [falling, full curve, poor fit]
12 | Cc1cc(=O)[nH]c(SCc2cc(Cl)ccc2OC(F)F)n1 | 7.31 µM [falling, partial curve] | -45.4 | 29.1 µM [falling, single point]
13 | O=S(=O)(c1cc(Br)ccc1Br)N1CCCCCC1 |  | -20.8 | 
14 | CC1CCC(NC(=O)CSc2ccc(S(=O)(=O)N(C)C)cn2)CC1 (configuration not stated) | 0.731 µM [rising, full curve, poor fit] | -1.1 | 
15 | N#CCC(=O)N/N=C/c1cn(Cc2ccc(Cl)c(Cl)c2)c2ccccc12 | 29.1 µM [falling, single point] | -28.7 | 
